From article doi:10.1101/2025.07.08.663624
These are yes or no findings as the source states them, for the method shown. A result given as binding can be weak or reduced; the word gives no strength. For some assays here: Binding seen in cells or lysates may run through a third protein.

Amino acid sequences for entries named in this document (tags omitted). A change or cut given only in a name is not applied to a line headed by its entry.
UniProt G0S5M5: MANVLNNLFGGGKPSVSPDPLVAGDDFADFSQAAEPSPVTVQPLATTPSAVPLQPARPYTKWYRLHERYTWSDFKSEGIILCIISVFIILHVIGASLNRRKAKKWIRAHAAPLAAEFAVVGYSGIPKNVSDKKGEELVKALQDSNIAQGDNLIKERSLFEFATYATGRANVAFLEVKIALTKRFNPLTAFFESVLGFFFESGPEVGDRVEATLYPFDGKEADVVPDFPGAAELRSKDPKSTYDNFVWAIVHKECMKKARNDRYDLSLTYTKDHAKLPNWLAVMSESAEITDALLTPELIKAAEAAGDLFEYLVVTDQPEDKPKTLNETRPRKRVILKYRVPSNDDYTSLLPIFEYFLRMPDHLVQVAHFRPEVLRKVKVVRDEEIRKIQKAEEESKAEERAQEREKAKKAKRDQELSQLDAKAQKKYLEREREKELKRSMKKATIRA

Assays:
[1] = molecular target: Chaetomium thermophilum CCDC47 with a FLAG tag (Chaetomium thermophilum) (UniProt G0S5M5); experiment: co-IP
[2] = molecular target: Chaetomium thermophilum CCDC47 with a FLAG tag (Chaetomium thermophilum) (UniProt G0S5M5); experiment: cryo-EM structure

binding [1]: binds | binding [2]: binds
Substance: Chaetomium thermophilum SND3 with a C-terminal TwinStrep tag (from UniProt G0RYQ7)
